Reference: patent US6210945

Key:
[1] = tested on: RsaI restriction endonuclease (R.RsaI) (Rhodopseudomonas sphaeroides); test: enzyme reaction in vitro; conditions: clarified extract of IPTG-induced cells, 1 ug lambda DNA in 50 ul, 37 C 1 h; protein in a lysate after overexpression; only the motif is given
[2] = tested on: RsaI methylase (M.RsaI) (Rhodopseudomonas sphaeroides); test: activity in cells; conditions: plasmid from expressing cells completely modified against RsaI digestion; protein in cells; only the motif is given
[3] = target: T1, MjaV methylase (M.MjaV) (Methanococcus jannaschii) (UniProt Q58893); test: activity in cells; conditions: plasmid from expressing cells completely modified against RsaI digestion; protein in cells; only the motif is given
T1 sequence (looked up, limits assumed): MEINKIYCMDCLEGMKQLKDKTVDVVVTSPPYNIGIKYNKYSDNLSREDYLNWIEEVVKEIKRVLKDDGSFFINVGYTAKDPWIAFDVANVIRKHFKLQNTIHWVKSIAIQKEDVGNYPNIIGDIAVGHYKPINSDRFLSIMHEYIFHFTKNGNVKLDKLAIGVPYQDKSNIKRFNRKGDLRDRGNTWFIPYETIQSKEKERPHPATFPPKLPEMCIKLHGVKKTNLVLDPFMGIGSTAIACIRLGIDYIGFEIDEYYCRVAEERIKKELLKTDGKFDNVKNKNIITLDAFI

GTAC (double strand) [lambda DNA (RsaI sites GTAC)]
activity on this sequence [1]: active

GTAC (double strand) [pIH919-rsaIM plasmid DNA (RsaI sites GTAC)]
activity on this sequence [2]: active

GTAC (double strand) [pSX20-mjaVM plasmid DNA (RsaI sites GTAC)]
activity on this sequence [3]: active

For at least one entry, the source does not settle the construct or the ends of the probe. For part of these data: Where a protein sequence is shown, tags need not be part of it.
